These are yes or no findings as the source states them, for the method shown. Binding seen in cells or lysates may run through a third protein. These calls come from enrichment with a bait or labelling near it, and not all partners need be listed.
Molecular target: flag-TUBB2B (Tubulin beta 2B class IIb, Flag-tagged) (UniProt Q9BVA1)
Assay: affinity purification with mass spectrometry; IP from lysate (EBC buffer) of flag-TUBB2B overexpressing TNBC cells, Protein G Dynabeads, SDS-PAGE, differential bands excised, LC-MS/MS

The chains behind the UniProt entries cited, without tags or fusion partners.
UniProt Q9BVA1: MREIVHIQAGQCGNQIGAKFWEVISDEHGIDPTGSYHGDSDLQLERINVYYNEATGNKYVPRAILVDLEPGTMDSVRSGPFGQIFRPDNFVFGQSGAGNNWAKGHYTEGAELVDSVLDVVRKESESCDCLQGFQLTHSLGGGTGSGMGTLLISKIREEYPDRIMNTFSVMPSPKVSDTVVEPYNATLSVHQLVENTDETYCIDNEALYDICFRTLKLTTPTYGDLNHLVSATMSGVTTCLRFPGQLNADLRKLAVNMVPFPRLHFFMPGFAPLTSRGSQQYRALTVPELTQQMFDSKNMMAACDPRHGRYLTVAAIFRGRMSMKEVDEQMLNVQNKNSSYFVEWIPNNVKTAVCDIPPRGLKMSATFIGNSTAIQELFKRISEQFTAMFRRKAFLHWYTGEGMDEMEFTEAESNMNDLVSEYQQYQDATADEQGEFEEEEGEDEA
UniProt P68104: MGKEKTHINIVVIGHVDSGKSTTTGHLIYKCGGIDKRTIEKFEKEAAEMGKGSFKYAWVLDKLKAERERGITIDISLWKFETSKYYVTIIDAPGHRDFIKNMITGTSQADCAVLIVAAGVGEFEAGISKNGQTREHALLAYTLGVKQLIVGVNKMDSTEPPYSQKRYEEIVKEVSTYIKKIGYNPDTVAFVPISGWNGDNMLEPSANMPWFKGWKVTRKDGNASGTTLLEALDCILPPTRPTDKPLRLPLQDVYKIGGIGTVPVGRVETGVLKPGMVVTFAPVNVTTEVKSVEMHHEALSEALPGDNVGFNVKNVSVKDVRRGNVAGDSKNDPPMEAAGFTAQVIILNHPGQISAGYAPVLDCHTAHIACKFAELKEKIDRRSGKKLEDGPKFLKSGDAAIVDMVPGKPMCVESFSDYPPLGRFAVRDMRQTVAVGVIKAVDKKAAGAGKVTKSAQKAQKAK
UniProt P35579: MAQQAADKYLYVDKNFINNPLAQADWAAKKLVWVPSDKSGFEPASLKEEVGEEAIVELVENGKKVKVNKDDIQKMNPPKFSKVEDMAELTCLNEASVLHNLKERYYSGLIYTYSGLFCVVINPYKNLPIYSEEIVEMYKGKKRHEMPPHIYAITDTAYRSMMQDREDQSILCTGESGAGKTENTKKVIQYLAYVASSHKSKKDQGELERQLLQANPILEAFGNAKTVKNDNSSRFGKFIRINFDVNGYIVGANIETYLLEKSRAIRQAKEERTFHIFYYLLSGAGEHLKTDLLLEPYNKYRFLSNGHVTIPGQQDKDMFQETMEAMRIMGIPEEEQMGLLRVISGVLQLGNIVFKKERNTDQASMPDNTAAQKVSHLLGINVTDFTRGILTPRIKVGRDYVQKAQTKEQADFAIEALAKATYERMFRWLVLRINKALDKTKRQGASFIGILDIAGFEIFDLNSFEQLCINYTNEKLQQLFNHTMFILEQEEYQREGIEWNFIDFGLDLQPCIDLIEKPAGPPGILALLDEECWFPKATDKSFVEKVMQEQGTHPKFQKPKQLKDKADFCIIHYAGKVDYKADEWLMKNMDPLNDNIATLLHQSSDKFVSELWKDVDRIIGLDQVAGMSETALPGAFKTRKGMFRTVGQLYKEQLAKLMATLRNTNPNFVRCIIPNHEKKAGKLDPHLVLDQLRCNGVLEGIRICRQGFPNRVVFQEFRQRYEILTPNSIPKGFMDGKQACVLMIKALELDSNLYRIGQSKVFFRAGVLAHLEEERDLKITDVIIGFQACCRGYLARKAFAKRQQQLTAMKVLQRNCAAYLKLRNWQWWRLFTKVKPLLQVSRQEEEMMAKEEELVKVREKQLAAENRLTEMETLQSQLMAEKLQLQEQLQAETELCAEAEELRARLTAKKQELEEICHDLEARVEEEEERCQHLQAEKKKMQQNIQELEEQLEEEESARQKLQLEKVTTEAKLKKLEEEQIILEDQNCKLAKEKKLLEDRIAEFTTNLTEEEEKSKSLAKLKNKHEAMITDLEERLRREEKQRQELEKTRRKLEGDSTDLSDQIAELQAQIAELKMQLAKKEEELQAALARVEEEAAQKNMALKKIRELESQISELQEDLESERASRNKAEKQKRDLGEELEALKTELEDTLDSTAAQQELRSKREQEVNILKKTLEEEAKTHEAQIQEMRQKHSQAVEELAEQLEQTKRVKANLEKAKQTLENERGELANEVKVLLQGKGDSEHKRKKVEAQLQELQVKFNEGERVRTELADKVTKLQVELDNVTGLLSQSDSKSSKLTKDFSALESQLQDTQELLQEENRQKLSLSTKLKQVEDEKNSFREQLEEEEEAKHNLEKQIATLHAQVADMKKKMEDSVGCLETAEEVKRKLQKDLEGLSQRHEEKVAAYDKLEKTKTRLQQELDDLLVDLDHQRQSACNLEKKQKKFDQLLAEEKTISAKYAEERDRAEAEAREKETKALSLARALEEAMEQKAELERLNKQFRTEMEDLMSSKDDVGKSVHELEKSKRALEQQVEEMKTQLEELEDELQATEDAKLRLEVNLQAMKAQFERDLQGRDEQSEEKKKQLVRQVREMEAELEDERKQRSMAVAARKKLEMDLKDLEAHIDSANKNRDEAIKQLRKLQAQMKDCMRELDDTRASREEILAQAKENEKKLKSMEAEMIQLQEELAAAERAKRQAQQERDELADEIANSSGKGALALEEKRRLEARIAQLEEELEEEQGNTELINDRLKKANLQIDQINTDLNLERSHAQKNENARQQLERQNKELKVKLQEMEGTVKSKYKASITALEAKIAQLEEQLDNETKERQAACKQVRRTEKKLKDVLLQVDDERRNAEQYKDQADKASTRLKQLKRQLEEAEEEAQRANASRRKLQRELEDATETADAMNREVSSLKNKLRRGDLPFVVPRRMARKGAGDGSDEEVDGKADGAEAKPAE

Row | binding | Substance
1 | binds | eukaryotic translation elongation factor 1 alpha 1 (eEF1A1) (from UniProt P68104 1-462)
2 | binds | myosin heavy chain 9 (MYH9) (from UniProt P35579 1-1960)
